This is an account of results in article PMC12583571.

Sequences of proteins named here, by UniProt entry; tags and fusion partners are left off.
UniProt P42859: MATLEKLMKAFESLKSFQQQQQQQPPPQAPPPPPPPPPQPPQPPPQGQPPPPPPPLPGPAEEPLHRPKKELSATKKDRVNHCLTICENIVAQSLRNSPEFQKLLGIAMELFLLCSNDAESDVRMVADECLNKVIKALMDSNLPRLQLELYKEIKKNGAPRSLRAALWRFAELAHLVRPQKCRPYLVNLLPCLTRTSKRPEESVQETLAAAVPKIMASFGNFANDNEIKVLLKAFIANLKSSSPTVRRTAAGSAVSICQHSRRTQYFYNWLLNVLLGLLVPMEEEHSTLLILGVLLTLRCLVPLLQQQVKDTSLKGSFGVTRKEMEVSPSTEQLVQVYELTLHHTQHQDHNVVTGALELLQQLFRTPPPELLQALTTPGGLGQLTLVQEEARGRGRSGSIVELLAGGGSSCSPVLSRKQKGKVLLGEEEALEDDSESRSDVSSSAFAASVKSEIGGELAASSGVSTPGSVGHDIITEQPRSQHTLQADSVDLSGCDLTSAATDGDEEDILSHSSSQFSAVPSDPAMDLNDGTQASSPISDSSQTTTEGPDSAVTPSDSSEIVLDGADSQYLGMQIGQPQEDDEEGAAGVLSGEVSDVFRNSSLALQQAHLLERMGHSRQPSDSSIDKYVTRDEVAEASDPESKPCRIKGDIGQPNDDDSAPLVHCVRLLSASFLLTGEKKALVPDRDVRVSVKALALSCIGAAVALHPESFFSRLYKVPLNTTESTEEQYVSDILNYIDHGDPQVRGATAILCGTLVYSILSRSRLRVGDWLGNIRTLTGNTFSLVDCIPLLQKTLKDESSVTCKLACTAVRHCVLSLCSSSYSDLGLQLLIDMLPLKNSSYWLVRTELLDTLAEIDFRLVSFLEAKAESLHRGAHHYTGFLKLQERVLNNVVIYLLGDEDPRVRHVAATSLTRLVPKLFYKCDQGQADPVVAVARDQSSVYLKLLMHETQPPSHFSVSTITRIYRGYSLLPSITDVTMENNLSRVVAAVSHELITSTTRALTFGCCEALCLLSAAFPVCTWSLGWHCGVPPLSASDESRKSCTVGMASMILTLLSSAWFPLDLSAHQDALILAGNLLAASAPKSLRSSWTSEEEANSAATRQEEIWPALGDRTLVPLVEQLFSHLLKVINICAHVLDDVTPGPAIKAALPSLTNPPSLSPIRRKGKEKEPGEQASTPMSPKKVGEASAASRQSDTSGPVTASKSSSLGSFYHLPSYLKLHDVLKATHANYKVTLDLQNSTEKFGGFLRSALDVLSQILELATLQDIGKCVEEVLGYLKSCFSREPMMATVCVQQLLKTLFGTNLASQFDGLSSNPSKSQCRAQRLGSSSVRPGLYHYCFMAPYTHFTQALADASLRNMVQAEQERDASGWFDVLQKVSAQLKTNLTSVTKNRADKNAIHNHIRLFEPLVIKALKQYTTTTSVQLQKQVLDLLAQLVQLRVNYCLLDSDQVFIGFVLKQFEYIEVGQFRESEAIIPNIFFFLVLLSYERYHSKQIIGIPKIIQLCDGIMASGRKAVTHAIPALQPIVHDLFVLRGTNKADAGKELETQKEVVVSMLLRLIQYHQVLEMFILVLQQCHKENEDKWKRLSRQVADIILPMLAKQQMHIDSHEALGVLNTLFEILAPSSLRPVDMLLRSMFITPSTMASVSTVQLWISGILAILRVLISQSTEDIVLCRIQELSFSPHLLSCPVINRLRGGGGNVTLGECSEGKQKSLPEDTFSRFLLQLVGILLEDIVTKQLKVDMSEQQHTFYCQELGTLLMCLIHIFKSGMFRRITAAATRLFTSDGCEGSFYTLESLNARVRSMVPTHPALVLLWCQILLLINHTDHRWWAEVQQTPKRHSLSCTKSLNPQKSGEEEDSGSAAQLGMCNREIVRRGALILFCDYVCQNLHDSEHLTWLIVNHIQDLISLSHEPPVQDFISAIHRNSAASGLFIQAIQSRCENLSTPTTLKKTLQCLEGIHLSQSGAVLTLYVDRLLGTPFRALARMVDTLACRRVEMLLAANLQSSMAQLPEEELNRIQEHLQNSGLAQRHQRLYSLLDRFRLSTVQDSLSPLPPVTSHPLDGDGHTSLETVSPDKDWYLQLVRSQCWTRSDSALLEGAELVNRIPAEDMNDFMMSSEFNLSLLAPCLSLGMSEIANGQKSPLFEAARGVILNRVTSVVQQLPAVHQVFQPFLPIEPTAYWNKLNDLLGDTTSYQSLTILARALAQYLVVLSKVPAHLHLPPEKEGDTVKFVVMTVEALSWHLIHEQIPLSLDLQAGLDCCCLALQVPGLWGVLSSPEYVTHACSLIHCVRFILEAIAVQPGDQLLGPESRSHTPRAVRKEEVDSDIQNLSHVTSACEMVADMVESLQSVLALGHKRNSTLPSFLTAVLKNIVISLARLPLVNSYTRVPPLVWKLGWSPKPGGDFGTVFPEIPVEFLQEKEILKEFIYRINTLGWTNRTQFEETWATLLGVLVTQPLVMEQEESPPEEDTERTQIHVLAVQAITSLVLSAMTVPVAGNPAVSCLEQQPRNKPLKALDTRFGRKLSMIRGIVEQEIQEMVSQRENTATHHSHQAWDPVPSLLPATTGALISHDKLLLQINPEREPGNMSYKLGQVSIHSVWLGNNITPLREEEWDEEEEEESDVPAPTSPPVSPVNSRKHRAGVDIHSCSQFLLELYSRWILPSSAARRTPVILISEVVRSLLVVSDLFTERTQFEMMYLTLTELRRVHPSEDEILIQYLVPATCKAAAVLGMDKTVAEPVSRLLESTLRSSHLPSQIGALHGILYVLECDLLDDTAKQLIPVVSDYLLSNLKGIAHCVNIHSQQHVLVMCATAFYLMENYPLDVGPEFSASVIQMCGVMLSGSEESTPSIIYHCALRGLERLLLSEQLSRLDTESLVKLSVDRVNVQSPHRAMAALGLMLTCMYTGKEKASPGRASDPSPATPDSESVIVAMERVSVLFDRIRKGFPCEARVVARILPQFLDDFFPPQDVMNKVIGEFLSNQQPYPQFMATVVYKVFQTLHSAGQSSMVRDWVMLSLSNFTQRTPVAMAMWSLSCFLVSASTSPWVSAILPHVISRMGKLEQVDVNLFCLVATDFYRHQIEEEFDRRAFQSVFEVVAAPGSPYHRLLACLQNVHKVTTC
UniProt Q969H0: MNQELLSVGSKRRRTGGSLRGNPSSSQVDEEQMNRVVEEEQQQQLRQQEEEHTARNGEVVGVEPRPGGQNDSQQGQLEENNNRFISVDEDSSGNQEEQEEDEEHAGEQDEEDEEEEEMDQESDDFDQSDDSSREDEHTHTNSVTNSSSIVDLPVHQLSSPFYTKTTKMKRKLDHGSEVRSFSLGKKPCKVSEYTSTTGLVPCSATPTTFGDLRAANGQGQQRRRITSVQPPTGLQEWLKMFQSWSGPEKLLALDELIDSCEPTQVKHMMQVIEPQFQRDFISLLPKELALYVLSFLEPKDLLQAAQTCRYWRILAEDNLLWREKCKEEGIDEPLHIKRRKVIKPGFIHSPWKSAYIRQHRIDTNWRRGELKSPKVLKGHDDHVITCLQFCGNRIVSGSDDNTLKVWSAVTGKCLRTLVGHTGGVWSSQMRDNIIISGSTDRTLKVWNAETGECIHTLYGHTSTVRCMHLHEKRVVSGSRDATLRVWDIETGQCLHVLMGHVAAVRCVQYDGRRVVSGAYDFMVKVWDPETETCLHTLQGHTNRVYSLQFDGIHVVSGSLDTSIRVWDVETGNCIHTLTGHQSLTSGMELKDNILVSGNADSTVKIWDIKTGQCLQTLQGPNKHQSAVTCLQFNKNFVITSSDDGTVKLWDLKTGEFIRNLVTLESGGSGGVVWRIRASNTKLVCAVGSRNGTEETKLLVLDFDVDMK
UniProt Q8VBV4: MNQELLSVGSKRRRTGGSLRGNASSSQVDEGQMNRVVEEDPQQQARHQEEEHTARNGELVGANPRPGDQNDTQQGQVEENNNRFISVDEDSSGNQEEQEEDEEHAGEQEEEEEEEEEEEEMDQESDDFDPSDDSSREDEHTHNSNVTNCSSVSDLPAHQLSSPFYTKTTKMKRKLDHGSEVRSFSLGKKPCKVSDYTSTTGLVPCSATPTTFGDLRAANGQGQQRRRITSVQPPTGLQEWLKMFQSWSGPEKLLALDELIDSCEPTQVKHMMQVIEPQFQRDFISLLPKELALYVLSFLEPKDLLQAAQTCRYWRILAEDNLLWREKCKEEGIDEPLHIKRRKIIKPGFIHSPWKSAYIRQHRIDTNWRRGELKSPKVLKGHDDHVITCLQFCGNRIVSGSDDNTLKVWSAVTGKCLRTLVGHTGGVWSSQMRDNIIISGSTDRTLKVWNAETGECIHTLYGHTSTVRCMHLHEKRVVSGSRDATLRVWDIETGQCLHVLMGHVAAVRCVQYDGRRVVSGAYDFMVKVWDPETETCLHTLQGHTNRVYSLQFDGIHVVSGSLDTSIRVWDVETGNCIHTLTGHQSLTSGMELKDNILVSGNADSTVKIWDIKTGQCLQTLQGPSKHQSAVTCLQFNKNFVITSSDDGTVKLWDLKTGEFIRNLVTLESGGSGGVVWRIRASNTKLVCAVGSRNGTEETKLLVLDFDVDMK

These are yes or no findings as the source states them, for the method shown. Binding seen in cells or lysates may run through a third protein. Some binding calls cover weakened binding; strength is not graded here.

Assay [1] addresses wild-type huntingtin (wtHTT), endogenous in HeLa cells (human (endogenous in HeLa)) (UniProt P42858). The assay can be described thus: proximity ligation; Duolink PLA on fixed cells; primary antibodies anti-FBXW7 (Abcam Ab192328, rabbit) and anti-HTT (Millipore Mab2166, mouse); red puncta; endogenous proteins in HeLa or STHdh (Q7, Q111) cells.
Assay [2] deals with wild-type HTT (Q7), endogenous in STHdh Q7/7 cells (mouse (endogenous in STHdh)) (UniProt P42859). The assay can be described thus: co-IP; co-immunoprecipitation in STHdh cells; antibodies, bait and buffer not described.
Assay [3] shares this target. Nature of the assay: proximity ligation; Duolink PLA on fixed cells; primary antibodies anti-FBXW7 (Abcam Ab192328, rabbit) and anti-HTT (Millipore Mab2166, mouse); red puncta; endogenous proteins in HeLa or STHdh (Q7, Q111) cells.
The target in assay [4] is wild-type huntingtin (wtHTT), endogenous in HeLa cells (human (endogenous in HeLa)) (UniProt P42858). Nature of the assay: proximity ligation; Duolink PLA on fixed HeLa cells transiently expressing mRFP-FBXW7; primary antibodies anti-RFP (Proteintech, rabbit) and anti-HTT (Millipore Mab2166, mouse); green puncta.

For the substance “FBXW7 (F-box and WD repeat domain-containing protein), endogenous in HeLa cells (from UniProt Q969H0 1-707)”, the binding result in assay [1] is “binds”.
As to “FBXW7, endogenous in mouse striatal STHdh cells (from UniProt Q8VBV4 1-710)”, the binding result in assay [2] and in assay [3] was “binds” throughout.
For “mRFP-tagged FBXW7 (α isoform) (from UniProt Q969H0 1-707)”, the binding entry in assay [4] is “binds”.
